# According to the supplement of paper PMC8728848:
# The list shows a part of the results.
# Legend:
# Experiment in all cases: glycan array binding signal (z-score within array); higher = stronger binding
# Settings in all cases: glycan notation: IUPAC condensed, linker removed
# [1] = molecular target: Fuc(a1-2)Gal
# Summary of the method: (§1)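 Glycan array data were curated from 3228 arrays in the Consortium for Functional Glycomics database and kept only where the protein sequence was available. Glycan names were converted to IUPAC-condensed notation, and columns mapping to the same glycan were averaged. The binding signal is a within-array Z-score, averaged across arrays of the same protein sequence at different concentrations or buffers and across linkers. Negative Z-scores can be read as non-binding.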
# [2] = molecular target: Fuc(a1-2)Gal(b1-3)GalNAc
# Summary of the method: as §1
# [3] = molecular target: Fuc(a1-2)Gal(b1-3)GalNAc(a1-3)[Fuc(a1-2)]Gal(b1-4)Glc
# Summary of the method: as §1
# [4] = molecular target: Fuc(a1-2)Gal(b1-3)GalNAc(a1-3)[Fuc(a1-2)]Gal(b1-4)GlcNAc
# Summary of the method: as §1
# [5] = molecular target: Fuc(a1-2)Gal(b1-3)GalNAc(b1-3)Gal
# Summary of the method: as §1
# [6] = molecular target: Fuc(a1-2)Gal(b1-3)GalNAc(b1-3)Gal(a1-4)Gal(b1-4)Glc
# Summary of the method: as §1
# [7] = molecular target: Fuc(a1-2)Gal(b1-3)GalNAc(b1-4)[Neu5Ac(a2-3)]Gal(b1-4)Glc
# Summary of the method: as §1
# [8] = molecular target: Fuc(a1-2)Gal(b1-3)GlcNAc
# Summary of the method: as §1
# [9] = molecular target: Fuc(a1-2)Gal(b1-3)GlcNAc(b1-2)Man(a1-3)[Fuc(a1-2)Gal(b1-3)GlcNAc(b1-2)Man(a1-6)]Man(b1-4)GlcNAc(b1-4)GlcNAc
# Summary of the method: as §1
# [10] = molecular target: Fuc(a1-2)Gal(b1-3)GlcNAc(b1-2)Man(a1-3)[Fuc(a1-2)Gal(b1-3)GlcNAc(b1-2)Man(a1-6)]Man(b1-4)GlcNAc(b1-4)[Fuc(a1-6)]GlcNAc
# Summary of the method: as §1
# [11] = molecular target: Fuc(a1-2)Gal(b1-3)GlcNAc(b1-3)Gal(b1-4)Glc
# Summary of the method: as §1
# [12] = molecular target: Fuc(a1-2)Gal(b1-3)GlcNAc(b1-3)GalNAc
# Summary of the method: as §1
# [13] = molecular target: Fuc(a1-2)Gal(b1-3)GlcNAc(b1-3)[Fuc(a1-2)Gal(b1-3)GlcNAc(b1-6)]GalNAc
# Summary of the method: as §1
# [14] = molecular target: Fuc(a1-2)Gal(b1-3)GlcNAc(b1-3)[Gal(b1-4)GlcNAc(b1-6)]Gal(b1-4)Glc
# Summary of the method: as §1
# [15] = molecular target: Fuc(a1-2)Gal(b1-3)GlcNAc(b1-3)[Neu5Ac(a2-6)Gal(b1-4)GlcNAc(b1-6)]Gal(b1-4)Glc
# Summary of the method: as §1
# [16] = molecular target: Fuc(a1-2)Gal(b1-3)GlcNAc6S
# Summary of the method: as §1
# [17] = molecular target: Fuc(a1-2)Gal(b1-3)[Fuc(a1-4)]GlcNAc
# Summary of the method: as §1
# [18] = molecular target: Fuc(a1-2)Gal(b1-3)[Fuc(a1-4)]GlcNAc(b1-2)Man(a1-3)[Fuc(a1-2)Gal(b1-3)[Fuc(a1-4)]GlcNAc(b1-2)Man(a1-3)]Man(b1-4)GlcNAc(b1-4)GlcNAc
# Summary of the method: as §1
# [19] = molecular target: Fuc(a1-2)Gal(b1-3)[Fuc(a1-4)]GlcNAc(b1-2)Man(a1-3)[Fuc(a1-2)Gal(b1-3)[Fuc(a1-4)]GlcNAc(b1-2)Man(a1-6)]Man(b1-4)GlcNAc(b1-4)[Fuc(a1-6)]GlcNAc(b1-4)[Fuc(a1-6)]GlcNAc
# Summary of the method: as §1
# [20] = molecular target: Fuc(a1-2)Gal(b1-3)[Fuc(a1-4)]GlcNAc(b1-3)[Fuc(a1-3)[Gal(b1-4)]GlcNAc(b1-6)]Gal(b1-4)Glc
# Summary of the method: as §1
# [21] = molecular target: Fuc(a1-2)Gal(b1-3)[Fuc(a1-4)]GlcNAc(b1-3)[Gal(b1-4)GlcNAc(b1-6)]Gal(b1-4)Glc
# Summary of the method: as §1
# [22] = molecular target: Fuc(a1-2)Gal(b1-4)Glc
# Summary of the method: as §1
# [23] = molecular target: Fuc(a1-2)Gal(b1-4)Glc6S
# Summary of the method: as §1
# [24] = molecular target: Fuc(a1-2)Gal(b1-4)GlcNAc
# Summary of the method: as §1
# [25] = molecular target: Fuc(a1-2)Gal(b1-4)GlcNAc(b1-2)Man
# Summary of the method: as §1
# [26] = molecular target: Fuc(a1-2)Gal(b1-4)GlcNAc(b1-2)Man(a1-3)[Fuc(a1-2)Gal(b1-4)GlcNAc(b1-2)Man(a1-6)]Man(b1-4)GlcNAc(b1-4)GlcNAc
# Summary of the method: as §1
# [27] = molecular target: Fuc(a1-2)Gal(b1-4)GlcNAc(b1-2)Man(a1-3)[Fuc(a1-2)Gal(b1-4)GlcNAc(b1-2)Man(a1-6)]Man(b1-4)GlcNAc(b1-4)[Fuc(a1-6)]GlcNAc
# Summary of the method: as §1
# [28] = molecular target: Fuc(a1-2)Gal(b1-4)GlcNAc(b1-2)[Fuc(a1-2)Gal(b1-4)GlcNAc(b1-4)]Man(a1-3)[Fuc(a1-2)Gal(b1-4)GlcNAc(b1-2)Man(a1-6)]Man(b1-4)GlcNAc(b1-4)GlcNAc
# Summary of the method: as §1
# [29] = molecular target: Fuc(a1-2)Gal(b1-4)GlcNAc(b1-3)Gal(b1-4)GlcNAc
# Summary of the method: as §1
# [30] = molecular target: Fuc(a1-2)Gal(b1-4)GlcNAc(b1-3)Gal(b1-4)GlcNAc(b1-2)Man(a1-3)[Fuc(a1-2)Gal(b1-4)GlcNAc(b1-3)Gal(b1-4)GlcNAc(b1-2)Man(a1-6)]Man(b1-4)GlcNAc(b1-4)GlcNAc
# Summary of the method: as §1
# [31] = molecular target: Fuc(a1-2)Gal(b1-4)GlcNAc(b1-3)Gal(b1-4)GlcNAc(b1-3)Gal(b1-4)GlcNAc
# Summary of the method: as §1
# [32] = molecular target: Fuc(a1-2)Gal(b1-4)GlcNAc(b1-3)GalNAc
# Summary of the method: as §1
# [33] = molecular target: Fuc(a1-2)Gal(b1-4)GlcNAc(b1-3)[Fuc(a1-2)Gal(b1-4)GlcNAc(b1-6)]GalNAc
# Summary of the method: as §1
# [34] = molecular target: Fuc(a1-2)Gal(b1-4)GlcNAc(b1-3)[Fuc(a1-3)[Gal(b1-4)]GlcNAc(b1-6)]Gal(b1-4)Glc
# Summary of the method: as §1
# [35] = molecular target: Fuc(a1-2)Gal(b1-4)GlcNAc(b1-6)GalNAc
# Summary of the method: as §1
# [36] = molecular target: Fuc(a1-2)Gal(b1-4)GlcNAc6S
# Summary of the method: as §1
# [37] = molecular target: Fuc(a1-2)Gal(b1-4)[Fuc(a1-3)]GlcNAc
# Summary of the method: as §1
binder,measurement,setting,value
GS7807Q-bfa-507-19-507 (Bacteroides fragilis) (protein) ASCNKFDDLNTNPDAATKVTAPMLATKLILNITQQGSAKNFVYHSMLSKQIAWSENASDEQYNLFGRTDFDGYTILTNCQKMVDAANEGDKDSYAALAKFMKAYKLFYKSLEVGDIPYSDALKGEEGVQKPKYDTQKEVMRQVLEDLEEAYTLFSSGSDFDGDPIFGGDTENWKKTVVAFELKVLTHLCKKDTDADLKVKERFARLVSSGSLMTSNADNFQLVYSNKAGQLYPFYYTQNKHSDYLMMSSVIIDNLKKFNDYRMFYYASPAKAQTDKGIKDSEWDAYLSIDPSDSYSNISVLYGKGEFCLANLRYTRVPEGEPLMRLSYAEQNFILAEGAVRGWISEDASTYYKKGIEASMNFIADNTPDKEEYTHGRTITQEYIQEYLAQPVIQLSGDKEKDLEMILLQRYLASFLQHPYDAYYDYRRTGYPVLPINPSTNLNTEKNKIPTRWMYPEAEFSYNPDNANEAVQRQYNGSDDVNKLMWILQ,glycan array binding signal (z-score),[1],-0.64
same,glycan array binding signal (z-score),[2],-1.06
same,glycan array binding signal (z-score),[3],-0.063
same,glycan array binding signal (z-score),[4],-1.04
same,glycan array binding signal (z-score),[5],1.59
same,glycan array binding signal (z-score),[6],-0.458
same,glycan array binding signal (z-score),[7],0.204
same,glycan array binding signal (z-score),[8],-0.429
same,glycan array binding signal (z-score),[9],0.576
same,glycan array binding signal (z-score),[10],-0.2
same,glycan array binding signal (z-score),[11],0.58
same,glycan array binding signal (z-score),[12],0.392
same,glycan array binding signal (z-score),[13],-0.116
same,glycan array binding signal (z-score),[14],-0.015
same,glycan array binding signal (z-score),[15],-0.457
same,glycan array binding signal (z-score),[16],-1.1
same,glycan array binding signal (z-score),[17],-0.925
same,glycan array binding signal (z-score),[18],-0.678
same,glycan array binding signal (z-score),[19],0.639
same,glycan array binding signal (z-score),[20],0.481
same,glycan array binding signal (z-score),[21],-0.199
same,glycan array binding signal (z-score),[22],-0.389
same,glycan array binding signal (z-score),[23],-1.16
same,glycan array binding signal (z-score),[24],-0.646
same,glycan array binding signal (z-score),[25],0.759
same,glycan array binding signal (z-score),[26],6.11
same,glycan array binding signal (z-score),[27],1.59
same,glycan array binding signal (z-score),[28],1.14
same,glycan array binding signal (z-score),[29],-0.681
same,glycan array binding signal (z-score),[30],-0.466
same,glycan array binding signal (z-score),[31],-0.518
same,glycan array binding signal (z-score),[32],-0.41
same,glycan array binding signal (z-score),[33],0.43
same,glycan array binding signal (z-score),[34],0.636
same,glycan array binding signal (z-score),[35],4.43
same,glycan array binding signal (z-score),[36],-0.736
same,glycan array binding signal (z-score),[37],-0.981
